In article PMC4481117 one finds binding data, which are given here for 1 substance.

The chains behind the UniProt entries cited, without tags or fusion partners. Where a name states a change or a piece, a line headed by the entry shows the natural chain unless it says otherwise.
UniProt P20701: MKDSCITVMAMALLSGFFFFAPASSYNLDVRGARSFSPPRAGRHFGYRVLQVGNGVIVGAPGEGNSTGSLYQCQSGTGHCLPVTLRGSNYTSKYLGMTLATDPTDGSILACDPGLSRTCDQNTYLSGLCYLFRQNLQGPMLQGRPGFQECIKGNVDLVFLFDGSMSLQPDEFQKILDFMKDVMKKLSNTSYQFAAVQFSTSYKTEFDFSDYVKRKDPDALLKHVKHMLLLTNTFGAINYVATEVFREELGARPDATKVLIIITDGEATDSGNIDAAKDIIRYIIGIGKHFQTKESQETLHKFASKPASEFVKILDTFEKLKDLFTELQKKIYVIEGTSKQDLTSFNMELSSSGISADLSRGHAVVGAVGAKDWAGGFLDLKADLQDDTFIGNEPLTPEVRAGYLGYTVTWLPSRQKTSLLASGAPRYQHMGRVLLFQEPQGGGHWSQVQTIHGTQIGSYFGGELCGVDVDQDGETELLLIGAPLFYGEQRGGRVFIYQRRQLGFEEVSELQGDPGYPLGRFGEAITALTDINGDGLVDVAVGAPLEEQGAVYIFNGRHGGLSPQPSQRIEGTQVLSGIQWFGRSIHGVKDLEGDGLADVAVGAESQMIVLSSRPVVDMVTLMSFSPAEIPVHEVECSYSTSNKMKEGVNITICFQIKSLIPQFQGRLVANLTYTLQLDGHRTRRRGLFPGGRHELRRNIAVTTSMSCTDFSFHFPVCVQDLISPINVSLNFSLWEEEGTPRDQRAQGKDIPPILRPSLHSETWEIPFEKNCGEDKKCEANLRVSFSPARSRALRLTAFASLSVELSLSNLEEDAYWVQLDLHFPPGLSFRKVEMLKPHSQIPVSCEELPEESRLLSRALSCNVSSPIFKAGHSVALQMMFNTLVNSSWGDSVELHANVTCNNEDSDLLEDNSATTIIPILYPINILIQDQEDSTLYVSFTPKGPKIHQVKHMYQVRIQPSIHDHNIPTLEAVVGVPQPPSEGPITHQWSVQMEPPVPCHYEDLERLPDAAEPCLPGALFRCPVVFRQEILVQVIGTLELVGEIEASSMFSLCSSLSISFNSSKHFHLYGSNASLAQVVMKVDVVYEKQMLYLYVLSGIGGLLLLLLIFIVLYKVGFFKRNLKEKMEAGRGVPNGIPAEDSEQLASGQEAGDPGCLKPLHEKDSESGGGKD

The target of this assay is T1, dynorphin B.
T1 sequence (peptide): YGGFLRRQFKVVT
Put plainly: cell adhesion assay; peptides coated on microtiter wells (3 h, 37 °C), post-coated with 1 % PVP; calcein-labeled HEK293 transfectants, 5x10^4 cells per well, 30 min at 37 °C; concentrations are coating concentrations; only the target purified.

These are yes or no findings as the source states them, for the method shown.

Consider “integrin LFA-1 (αLβ2, CD11a/CD18) on HEK293 cells (from UniProt P20701 26-1170; P05107 23-769) (receptor)”, for which the binding entry is listed as “no binding (tested: 10 μM (coating))”.
